These are yes or no findings as the source states them, for the method shown. For part of these data: Binding can be weak; no strength is given. Tags and fused reporters may be left off the sequences shown. For part of these data: Binding seen in cells or lysates may run through a third protein.
Key:
[1] = biological target: T1, Armitage WT-Flag (RNAi-resistant) (D. melanogaster) (UniProt Q6J5K9); test: co-IP
T1 sequence: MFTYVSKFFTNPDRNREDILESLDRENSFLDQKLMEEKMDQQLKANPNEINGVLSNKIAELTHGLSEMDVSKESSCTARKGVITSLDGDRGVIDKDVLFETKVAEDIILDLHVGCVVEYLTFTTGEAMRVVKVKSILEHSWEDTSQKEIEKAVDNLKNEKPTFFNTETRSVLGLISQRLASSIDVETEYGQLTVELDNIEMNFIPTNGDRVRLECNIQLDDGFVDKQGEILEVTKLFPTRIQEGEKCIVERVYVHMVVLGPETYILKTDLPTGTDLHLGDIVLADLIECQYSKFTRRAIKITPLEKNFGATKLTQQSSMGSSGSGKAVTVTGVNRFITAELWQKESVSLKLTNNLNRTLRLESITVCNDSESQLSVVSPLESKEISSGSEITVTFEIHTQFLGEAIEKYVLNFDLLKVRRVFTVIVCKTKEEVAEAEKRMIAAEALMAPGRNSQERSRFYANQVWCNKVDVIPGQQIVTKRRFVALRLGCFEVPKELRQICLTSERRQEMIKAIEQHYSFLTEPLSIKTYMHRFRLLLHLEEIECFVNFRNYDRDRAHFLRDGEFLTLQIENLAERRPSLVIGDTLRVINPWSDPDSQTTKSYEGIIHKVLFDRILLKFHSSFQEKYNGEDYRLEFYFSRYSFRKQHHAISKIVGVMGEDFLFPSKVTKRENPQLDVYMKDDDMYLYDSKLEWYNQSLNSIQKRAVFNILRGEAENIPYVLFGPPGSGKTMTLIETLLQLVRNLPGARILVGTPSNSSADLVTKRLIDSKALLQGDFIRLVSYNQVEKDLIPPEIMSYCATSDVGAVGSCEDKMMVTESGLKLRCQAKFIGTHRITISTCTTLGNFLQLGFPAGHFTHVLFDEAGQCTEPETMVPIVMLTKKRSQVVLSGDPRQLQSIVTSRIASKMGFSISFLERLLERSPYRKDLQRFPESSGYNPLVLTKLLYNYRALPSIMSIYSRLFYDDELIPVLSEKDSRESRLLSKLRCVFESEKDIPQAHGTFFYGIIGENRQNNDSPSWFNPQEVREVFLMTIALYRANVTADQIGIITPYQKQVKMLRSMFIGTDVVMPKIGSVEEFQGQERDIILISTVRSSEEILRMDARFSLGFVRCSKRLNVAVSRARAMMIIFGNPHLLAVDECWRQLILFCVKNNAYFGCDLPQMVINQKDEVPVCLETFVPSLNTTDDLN

[2] = biological target: T1, Armitage WT-Flag (RNAi-resistant) (D. melanogaster); test: pull-down
[3] = biological target: T2, Armitage ΔN34-Flag (D. melanogaster) (UniProt Q6J5K9); test: pull-down
T2 sequence: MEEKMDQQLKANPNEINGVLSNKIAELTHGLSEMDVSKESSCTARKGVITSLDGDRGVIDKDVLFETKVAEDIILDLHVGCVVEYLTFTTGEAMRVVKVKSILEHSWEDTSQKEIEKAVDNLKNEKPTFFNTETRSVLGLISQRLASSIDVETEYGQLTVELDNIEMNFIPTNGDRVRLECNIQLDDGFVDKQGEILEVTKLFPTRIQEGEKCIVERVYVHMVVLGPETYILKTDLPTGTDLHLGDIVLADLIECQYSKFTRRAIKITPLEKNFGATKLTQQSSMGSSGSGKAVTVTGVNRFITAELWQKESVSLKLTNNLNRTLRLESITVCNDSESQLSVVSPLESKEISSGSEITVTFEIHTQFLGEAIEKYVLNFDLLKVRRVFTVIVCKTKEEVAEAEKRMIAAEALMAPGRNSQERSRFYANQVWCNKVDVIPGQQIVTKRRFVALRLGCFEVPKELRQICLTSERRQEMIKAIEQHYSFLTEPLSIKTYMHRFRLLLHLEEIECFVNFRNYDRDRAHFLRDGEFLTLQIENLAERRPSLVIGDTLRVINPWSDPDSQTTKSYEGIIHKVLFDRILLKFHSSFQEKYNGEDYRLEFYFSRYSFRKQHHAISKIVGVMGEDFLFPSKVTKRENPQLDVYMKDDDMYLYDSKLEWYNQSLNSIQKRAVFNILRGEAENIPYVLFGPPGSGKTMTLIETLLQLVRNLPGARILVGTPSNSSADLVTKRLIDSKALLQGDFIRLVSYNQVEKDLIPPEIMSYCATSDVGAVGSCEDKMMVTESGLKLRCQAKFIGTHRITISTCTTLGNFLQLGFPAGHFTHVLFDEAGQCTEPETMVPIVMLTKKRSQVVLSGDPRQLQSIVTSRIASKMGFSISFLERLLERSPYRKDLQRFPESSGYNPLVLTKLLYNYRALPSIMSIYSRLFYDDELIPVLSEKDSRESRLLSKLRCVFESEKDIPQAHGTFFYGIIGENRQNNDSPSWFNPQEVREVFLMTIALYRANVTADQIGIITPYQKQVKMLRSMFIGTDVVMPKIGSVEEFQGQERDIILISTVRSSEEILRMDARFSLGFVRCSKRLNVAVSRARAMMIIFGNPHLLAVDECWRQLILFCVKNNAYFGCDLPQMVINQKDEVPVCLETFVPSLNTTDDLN

Row | binding [1] | binding [2] | binding [3] | Substance
1 | binds | – | – | Daedalus (Daed), endogenous in OSCs (D. melanogaster (endogenous in OSCs))
2 | – | binds | no binding | Daed ΔTM-His (Drosophila (cDNA from OSC RNA)) (domain or fragment)

From publication doi:10.1101/2024.06.02.596995
